Literature values as cited in US7160886B2, “Acylated piperazine derivatives as melanocortin-4 receptor agonists” (Merck & Co., Inc., priority 2003, dated 2007).
Some of these results come from one statement about several compounds together. Some ranges recur; such a range may be that of the whole group of compounds.

Settings: in vivo

In the case of CCCCCCCCCCC[C@@H](C[C@@H]1OC(=O)[C@H]1CCCCCC)OC(=O)[C@H](CC(C)C)NC=O [orlistat], the “weight loss of body weight for drug compared to placebo” value is given as 5%–10%.
